At least one compound was matched to its structure with a doubt left.
Tested on: Protein Kinase A (PKA)
Assay: Inhibition of Kemptide phosphorylation in mouse brain lysates (zirconyl sensor fluorescence quench)
Assay type: biochemical
Settings: mouse brain lysate, Chromeo642-labeled Kemptide, FIG. 18

## O=c1cc(N2CCOCC2)oc2c(-c3ccccc3)cccc12 [LY294002]
  inhibition of Kemptide phosphorylation: No inhibition
